In article PMC3098239:
Results are given in words; binding and its absence hold for the method and conditions named. Binding seen in cells or lysates may run through a third protein. Binding can be weak; no strength is given. Where a sequence is shown, tags or fusion partners need not be part of it.

The chains behind the UniProt entries cited, without tags or fusion partners. Where a name states a change or a piece, a line headed by the entry shows the natural chain unless it says otherwise.
UniProt Q3KNM2: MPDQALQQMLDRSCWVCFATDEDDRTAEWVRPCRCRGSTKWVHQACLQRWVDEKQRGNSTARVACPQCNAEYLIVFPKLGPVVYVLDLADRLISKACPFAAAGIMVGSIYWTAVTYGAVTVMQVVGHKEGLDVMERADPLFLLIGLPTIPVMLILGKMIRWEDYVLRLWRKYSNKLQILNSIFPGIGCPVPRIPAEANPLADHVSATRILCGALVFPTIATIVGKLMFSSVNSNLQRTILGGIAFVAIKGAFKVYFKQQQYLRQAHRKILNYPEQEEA

Biological target: HA-MARCH5 C2A (mouse (from the printed RefSeq NP_081590)) (UniProt Q3KNM2)
Assay: co-IP; HEK293T cells cotransfected with HA-MARCH5 construct and Flag-TANK; lysis in TBS (50 mM Tris-Cl pH 7.4, 150 mM NaCl) with 1% Triton-X 100; immunoprecipitated with anti-HA, blotted with anti-Flag; 4°C

B1: Flag-TANK (wild type) (protein, UniProt P70347-2 1-414)
chain: MDKNIGEQLNRAYEAFRQACMDRDSAVRELQQKQTENYEQRIREQQEQLSFQQNLIDRLKSQLLLVDSSRDNSYGYVPLLEDSDRRKNNLTLDEPHDKVKLGTLRDKQSKVRRQEVSSGKESAKGLNIPLHHERDNIEKTFWDLKEEFHRICLLAKAQKDHLSKLNIPDIATDTQCSVPIQCTDKTEKQEALFKPQAKDDINRGMSCVTAVTPRGLGRDEEDTSFESLSKFNVKFPPMDNDSIFLHSTPEAPSILAPATPETVCQDRFNMEVRDNPGNFVKTEETLFEIQGIDPITSAIQNLKTTDKTNPSNLRATCLPAGDHNVFYVNTFPLQDPPDAPFPSLDSPGKAVRGPQQPFWKPFLNQDTDLVVPSDSDSELLKPLVCEFCQELFPPSITSRGDFLRHLNTHFNGET
binding: binds
